According to publication PMC11602137:
Results are given in words; binding and its absence hold for the method and conditions named. Binding seen in cells or lysates may run through a third protein. Some results given as binding are weak or reduced against the parent protein; the word gives no strength.

The chains behind the UniProt entries cited, without tags or fusion partners.
UniProt Q9UL03: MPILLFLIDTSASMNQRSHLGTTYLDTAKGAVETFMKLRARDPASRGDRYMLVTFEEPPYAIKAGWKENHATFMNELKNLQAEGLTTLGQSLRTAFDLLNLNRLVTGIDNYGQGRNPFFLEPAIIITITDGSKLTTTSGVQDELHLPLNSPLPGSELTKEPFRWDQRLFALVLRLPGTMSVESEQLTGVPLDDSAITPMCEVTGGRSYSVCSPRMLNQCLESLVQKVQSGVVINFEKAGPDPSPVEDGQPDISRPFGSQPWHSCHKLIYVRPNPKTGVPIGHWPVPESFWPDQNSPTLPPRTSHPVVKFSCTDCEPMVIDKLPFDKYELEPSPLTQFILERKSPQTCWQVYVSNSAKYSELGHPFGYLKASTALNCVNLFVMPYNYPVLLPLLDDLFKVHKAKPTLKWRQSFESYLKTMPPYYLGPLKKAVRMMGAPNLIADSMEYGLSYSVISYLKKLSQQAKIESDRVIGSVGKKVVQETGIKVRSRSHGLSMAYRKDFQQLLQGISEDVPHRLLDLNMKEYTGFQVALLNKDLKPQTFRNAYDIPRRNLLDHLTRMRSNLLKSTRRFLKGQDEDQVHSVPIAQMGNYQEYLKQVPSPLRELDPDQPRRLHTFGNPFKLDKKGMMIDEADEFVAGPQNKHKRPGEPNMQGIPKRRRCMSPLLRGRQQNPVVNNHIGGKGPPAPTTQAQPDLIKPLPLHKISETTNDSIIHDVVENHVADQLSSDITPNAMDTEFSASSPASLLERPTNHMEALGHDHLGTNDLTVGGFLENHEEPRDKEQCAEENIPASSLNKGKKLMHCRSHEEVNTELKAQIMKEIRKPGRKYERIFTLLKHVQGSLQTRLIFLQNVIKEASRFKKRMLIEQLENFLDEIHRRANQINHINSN
UniProt Q7Z333: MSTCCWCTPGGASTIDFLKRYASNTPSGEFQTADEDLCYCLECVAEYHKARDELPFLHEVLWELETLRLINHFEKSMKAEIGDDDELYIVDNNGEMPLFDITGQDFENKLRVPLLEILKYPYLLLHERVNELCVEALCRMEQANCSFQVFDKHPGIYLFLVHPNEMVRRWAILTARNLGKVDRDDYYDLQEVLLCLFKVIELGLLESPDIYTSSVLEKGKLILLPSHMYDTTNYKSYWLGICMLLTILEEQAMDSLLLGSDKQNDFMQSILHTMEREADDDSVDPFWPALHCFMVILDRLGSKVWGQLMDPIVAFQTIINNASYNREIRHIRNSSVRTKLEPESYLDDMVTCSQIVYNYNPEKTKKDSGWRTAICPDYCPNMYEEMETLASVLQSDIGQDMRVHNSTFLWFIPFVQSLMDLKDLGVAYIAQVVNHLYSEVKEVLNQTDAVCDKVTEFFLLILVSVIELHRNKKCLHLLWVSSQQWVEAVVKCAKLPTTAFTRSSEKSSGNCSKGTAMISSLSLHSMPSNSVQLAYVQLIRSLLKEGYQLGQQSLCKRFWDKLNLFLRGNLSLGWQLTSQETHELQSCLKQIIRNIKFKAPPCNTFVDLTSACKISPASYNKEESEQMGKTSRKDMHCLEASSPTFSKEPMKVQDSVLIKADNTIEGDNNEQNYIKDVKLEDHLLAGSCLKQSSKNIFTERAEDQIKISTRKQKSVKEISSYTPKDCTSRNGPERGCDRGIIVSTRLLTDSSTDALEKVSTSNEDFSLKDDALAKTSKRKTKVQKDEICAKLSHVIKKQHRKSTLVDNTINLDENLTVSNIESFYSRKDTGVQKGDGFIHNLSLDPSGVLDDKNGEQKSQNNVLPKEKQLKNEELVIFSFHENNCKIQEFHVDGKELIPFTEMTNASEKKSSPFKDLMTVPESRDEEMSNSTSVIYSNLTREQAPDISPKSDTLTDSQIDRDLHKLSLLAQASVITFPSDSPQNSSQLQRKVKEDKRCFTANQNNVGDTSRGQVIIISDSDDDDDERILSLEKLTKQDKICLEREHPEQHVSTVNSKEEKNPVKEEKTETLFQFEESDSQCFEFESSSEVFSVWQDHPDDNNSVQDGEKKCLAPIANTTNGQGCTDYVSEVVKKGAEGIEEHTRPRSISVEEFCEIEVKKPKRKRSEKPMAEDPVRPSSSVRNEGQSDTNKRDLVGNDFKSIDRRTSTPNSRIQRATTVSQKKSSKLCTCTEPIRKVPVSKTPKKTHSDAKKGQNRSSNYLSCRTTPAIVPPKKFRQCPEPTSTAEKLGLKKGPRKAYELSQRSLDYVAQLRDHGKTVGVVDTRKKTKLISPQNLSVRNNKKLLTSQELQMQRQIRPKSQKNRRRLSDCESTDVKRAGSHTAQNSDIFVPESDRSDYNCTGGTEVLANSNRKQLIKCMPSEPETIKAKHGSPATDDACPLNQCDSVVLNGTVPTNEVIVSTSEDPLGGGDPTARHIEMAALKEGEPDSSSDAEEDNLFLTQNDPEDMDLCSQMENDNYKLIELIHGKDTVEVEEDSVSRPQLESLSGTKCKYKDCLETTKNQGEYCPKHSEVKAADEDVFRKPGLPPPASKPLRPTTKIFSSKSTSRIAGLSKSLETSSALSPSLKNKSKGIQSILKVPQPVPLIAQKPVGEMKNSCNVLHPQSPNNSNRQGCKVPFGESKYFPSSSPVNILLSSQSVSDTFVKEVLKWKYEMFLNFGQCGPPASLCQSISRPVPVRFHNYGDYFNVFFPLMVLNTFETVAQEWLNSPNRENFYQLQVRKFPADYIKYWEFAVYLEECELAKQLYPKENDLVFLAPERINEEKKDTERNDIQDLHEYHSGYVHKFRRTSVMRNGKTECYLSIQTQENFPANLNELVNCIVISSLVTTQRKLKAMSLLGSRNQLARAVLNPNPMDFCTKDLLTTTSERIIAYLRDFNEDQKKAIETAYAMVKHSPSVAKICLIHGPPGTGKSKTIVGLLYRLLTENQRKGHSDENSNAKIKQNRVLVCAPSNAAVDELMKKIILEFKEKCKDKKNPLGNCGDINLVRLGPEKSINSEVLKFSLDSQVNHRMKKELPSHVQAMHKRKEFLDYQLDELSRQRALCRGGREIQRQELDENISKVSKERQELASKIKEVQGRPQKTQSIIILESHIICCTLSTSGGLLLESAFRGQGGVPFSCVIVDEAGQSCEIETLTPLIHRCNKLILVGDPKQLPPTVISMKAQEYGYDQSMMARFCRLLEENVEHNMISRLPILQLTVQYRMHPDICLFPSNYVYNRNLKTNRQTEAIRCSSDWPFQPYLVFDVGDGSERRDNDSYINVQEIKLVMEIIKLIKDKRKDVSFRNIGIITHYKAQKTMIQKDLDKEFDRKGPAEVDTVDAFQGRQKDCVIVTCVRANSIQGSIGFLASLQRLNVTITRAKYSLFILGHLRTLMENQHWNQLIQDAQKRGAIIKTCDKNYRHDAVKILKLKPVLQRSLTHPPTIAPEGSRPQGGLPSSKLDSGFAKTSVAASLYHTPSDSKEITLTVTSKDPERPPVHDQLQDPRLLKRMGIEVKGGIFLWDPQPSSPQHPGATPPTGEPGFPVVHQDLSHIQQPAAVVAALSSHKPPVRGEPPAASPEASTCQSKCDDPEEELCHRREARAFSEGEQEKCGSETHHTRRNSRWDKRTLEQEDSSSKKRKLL
UniProt Q68E01: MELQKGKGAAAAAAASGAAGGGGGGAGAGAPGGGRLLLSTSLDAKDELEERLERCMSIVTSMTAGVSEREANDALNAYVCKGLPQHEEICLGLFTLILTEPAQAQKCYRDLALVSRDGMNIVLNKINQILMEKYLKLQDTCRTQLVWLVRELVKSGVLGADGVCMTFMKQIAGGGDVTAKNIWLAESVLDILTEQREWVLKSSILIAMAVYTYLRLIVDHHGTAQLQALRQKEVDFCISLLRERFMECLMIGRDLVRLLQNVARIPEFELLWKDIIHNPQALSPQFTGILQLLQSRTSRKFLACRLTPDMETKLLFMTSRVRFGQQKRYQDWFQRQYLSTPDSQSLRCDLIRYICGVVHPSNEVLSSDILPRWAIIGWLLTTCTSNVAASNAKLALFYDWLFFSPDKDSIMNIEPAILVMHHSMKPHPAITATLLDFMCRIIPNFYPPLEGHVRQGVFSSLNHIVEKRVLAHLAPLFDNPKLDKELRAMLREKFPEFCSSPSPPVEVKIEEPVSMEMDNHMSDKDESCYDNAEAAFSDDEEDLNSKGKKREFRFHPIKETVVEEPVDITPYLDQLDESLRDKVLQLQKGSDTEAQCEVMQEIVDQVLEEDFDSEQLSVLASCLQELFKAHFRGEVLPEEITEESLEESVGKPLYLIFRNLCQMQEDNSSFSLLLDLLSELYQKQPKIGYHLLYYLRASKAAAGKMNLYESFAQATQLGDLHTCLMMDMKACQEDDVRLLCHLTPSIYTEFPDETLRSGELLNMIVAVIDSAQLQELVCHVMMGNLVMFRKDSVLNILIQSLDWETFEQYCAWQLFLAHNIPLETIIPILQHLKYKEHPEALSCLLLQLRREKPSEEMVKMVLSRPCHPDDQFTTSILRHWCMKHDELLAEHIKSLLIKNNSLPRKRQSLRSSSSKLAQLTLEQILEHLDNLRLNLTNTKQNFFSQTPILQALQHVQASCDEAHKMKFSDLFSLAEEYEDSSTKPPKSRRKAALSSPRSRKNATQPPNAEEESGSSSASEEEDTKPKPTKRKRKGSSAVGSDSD
UniProt Q9BQ15: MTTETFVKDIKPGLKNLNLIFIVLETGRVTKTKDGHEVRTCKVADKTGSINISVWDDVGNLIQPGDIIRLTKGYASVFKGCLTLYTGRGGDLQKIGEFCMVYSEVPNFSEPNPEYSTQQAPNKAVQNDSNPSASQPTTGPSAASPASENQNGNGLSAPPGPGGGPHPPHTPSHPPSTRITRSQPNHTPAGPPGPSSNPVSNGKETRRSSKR

Columns and labels:
[1] = biological target: Integrator complex subunit 6 (INTS6) (human (endogenous in HeLa or U2OS cells; line not stated for the experiment)) (UniProt Q9UL03); assay: co-IP; immunoprecipitation of endogenous proteins from benzonase-treated cell lysate (150 mM NaCl, 1% NP40), Protein A/G beads, western blot; with or without IR (10 Gy, 10 min post-IR)
[2] = biological target: Integrator complex subunit 6 (INTS6) (human (endogenous in HeLa or U2OS cells; line not stated for the experiment)) (UniProt Q9UL03); assay: proximity ligation; Duolink in situ PLA on fixed, permeabilised cells with antibodies to the two endogenous proteins; with or without IR (10 Gy, 10 min post-IR); also with DRB, THZ1, INTS6 knock-down or RNaseH1 overexpression
[3] = biological target: senataxin (SETX) (human (endogenous in HeLa or U2OS cells, line not stated; endogenous in HEK293)) (UniProt Q7Z333); assay: co-IP; immunoprecipitation of endogenous proteins from benzonase-treated cell lysate (150 mM NaCl, 1% NP40), Protein A/G beads, western blot; with or without IR (10 Gy, 10 min post-IR)
[4] = biological target: senataxin (SETX) (human (endogenous in HeLa or U2OS cells, line not stated; endogenous in HEK293)) (UniProt Q7Z333); assay: proximity ligation; Duolink in situ PLA on fixed, permeabilised cells with antibodies to the two endogenous proteins; with or without IR (10 Gy, 10 min post-IR); also with DRB, THZ1, INTS6 knock-down or RNaseH1 overexpression
[5] = biological target: FLAG-tagged INTS6 (FLAG-INTS6) (UniProt Q9UL03); assay: co-IP; anti-FLAG M2 affinity purification from nuclear lysate of HEK293 cells stably expressing FLAG-INTS6 or mock, FLAG-peptide elution, western blot of the eluates

Row | Substance | binding [1] | binding [2] | binding [3] | binding [4] | binding [5]
1 | INTS3 (from UniProt Q68E01 1-1043) | binds | binds | – | – | –
2 | Integrator complex subunit 6 (INTS6) (from UniProt Q9UL03 1-887) | – | – | binds | binds | –
3 | hSSB1 (NABP2) (from UniProt Q9BQ15 1-211) | binds | binds | binds | – | –
4 | senataxin (SETX) (from UniProt Q7Z333 1-2677) | – | – | – | – | binds
